From US20250376446A1, “[…] OF A SYNTHETIC CANNABINOID” (Jazz Pharmaceuticals Research UK Limited, priority 2022, published 2025)

Test system: mouse model of generalised seizure (tonic hind limb extensor convulsions)
Test: Maximal electroshock seizure threshold (MEST) test in the mouse
Details: i.p., 2.5 mg/kg, 30 min post dose
Method: The efficacy of compound 1 was tested in a mouse model of generalised seizure, the maximal electroshock seizure threshold (MEST) test.
The maximal electroshock seizure threshold (MEST) test is widely utilized preclinically to evaluate pro-or anti-convulsant properties of test compounds (Loscher et al., 1991).
In the MEST test the ability of a drug to alter the seizure threshold current required to induce hind limb tonic extensor convulsions is measured according to an “up and down” method of shock titration (Kimball et al., 1957). An increase in seizure threshold is indicative of anti-convulsant effect.
The ability of a test compound to alter the stimulus intensity, expressed as current (mA), required to induce the presence of tonic hind limb extensor convulsions, is assessed in the MEST.
Naïve mice were acclimatised to the procedure room in their home cages for up to 7 days, with food and water available ad libitum.
All animals were weighed at the beginning of the study and randomly assigned to treatment groups based on a mean distribution of body weight across groups. […]
Test compound effects were also calculated as percentage change in CC50 from the vehicle control group.
Significant difference between drug-treated animals and controls were assessed according to Litchfield and Wilcoxon (1949).

CN1C(=O)CN=C(c2ccccc2)c2cc(Cl)ccc21 [Diazepam, diazepam, reference compound]
CC50 +/- SEM: 78.5 ± 1.0 mA
CC50 +/- SEM (listed as diazepam): 78.5 mA
